Source: publication PMC9198048, “Ursodeoxycholic acid reduces antitumor immunosuppression by inducing CHIP-mediated TGF-β degradation” (Nature Communications, 2022)

Sequences of proteins named here, by UniProt entry; tags and fusion partners are left off. Residues count along the entry.
UniProt P04202, residues 30-390: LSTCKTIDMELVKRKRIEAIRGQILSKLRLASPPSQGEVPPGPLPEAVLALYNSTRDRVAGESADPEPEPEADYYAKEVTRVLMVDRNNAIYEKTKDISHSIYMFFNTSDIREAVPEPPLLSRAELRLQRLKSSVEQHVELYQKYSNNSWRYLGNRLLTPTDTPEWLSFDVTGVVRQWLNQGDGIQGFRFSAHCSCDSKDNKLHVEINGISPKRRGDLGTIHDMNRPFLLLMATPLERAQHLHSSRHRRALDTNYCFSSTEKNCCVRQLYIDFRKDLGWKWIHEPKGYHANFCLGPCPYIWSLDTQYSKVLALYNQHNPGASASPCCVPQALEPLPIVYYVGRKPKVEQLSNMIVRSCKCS
UniProt Q9WUD1: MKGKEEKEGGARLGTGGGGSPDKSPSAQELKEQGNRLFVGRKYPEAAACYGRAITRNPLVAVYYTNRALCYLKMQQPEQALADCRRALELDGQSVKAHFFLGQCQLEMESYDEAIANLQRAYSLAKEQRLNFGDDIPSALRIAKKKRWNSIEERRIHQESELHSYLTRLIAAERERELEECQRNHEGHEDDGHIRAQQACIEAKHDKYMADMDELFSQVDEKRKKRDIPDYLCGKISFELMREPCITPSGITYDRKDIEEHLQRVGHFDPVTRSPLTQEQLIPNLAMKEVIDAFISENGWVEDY

Molecular target: TGF-β1 (bait of the pull-down for mass spectrometry) (UniProt P04202)
Assay: affinity purification with mass spectrometry; pull-down samples of TGF-β1 and of PKA, in-gel trypsin digestion, Q Exactive

binding: binds
Substance: CHIP (found by mass spectrometry) (from UniProt Q9WUD1 1-304) (enzyme)

These are yes or no findings as the source states them, for the method shown. Binding seen in cells or lysates may run through a third protein. Here binding means that the protein was enriched with, or labelled near, the bait; the list need not be complete.
